For 16 compounds, survivor count and T/C results are on record in PubChem BioAssay AID248 (DTP/NCI, 2004).

This assay relates to L1210 leukemia ip in BDF1 mice, survival T/C. The assay can be described thus: NCI In Vivo Anticancer Drug Screen. Data for tumor model L1210 Leukemia (intraperitoneal) in B6D2F1 (BDF1) mice. To be noted: T/C endpoint: mean survival time, higher T/C = longer survival.
Setting [1] is: dose: 200.0 mg/kg/injection, schedule: Q01DX001 (ip), vehicle: saline.
Setting [2] is: dose: 200.0 mg/kg/injection, schedule: Q01DX009 (ip), vehicle: Klucel (hydroxypropylcellulose) (HPC).
The mark [3] stands for this setting: dose: 400.0 mg/kg/injection, schedule: Q04DX003 (ip), vehicle: Klucel (hydroxypropylcellulose) (HPC).
[4] abbreviates: dose: 400.0 mg/kg/injection, schedule: Q01DX001 (ip), vehicle: saline.

The list is a part of this screen's results and no random one: it is rich in T/C values a quarter to a half above the control, in often repeated tests (any T/C) and in doses without a T/C. Further doses and runs are listed elsewhere. T/C is the treated group as % of the vehicle group. Some entries give survivors of the animals treated and no T/C: the source holds a T/C of zero for them, seemingly a mark for toxic or unscored doses. Some survivor counts are full or nearly so, which does not show that the dose was tolerated: survival well below the control is almost never listed, so the zero probably covers shortened survival too. Counts of survivors are from the toxicity check (mostly the fifth day) where no day follows; animals may have died later. Schedule codes are those of the source, read here as Q, the interval in days (D) or hours (H), X, the number of doses. Where survival is the endpoint, this PubChem deposit counts one and a half times the control or more as active, and values a quarter to a half above the control carry no call in these data; other NCI protocols may use other cut-offs. Some schedule codes hold Z or #, which are not explained here. Some T/C values are followed by the survivors on the day toxicity was checked, most often the fifth; without a count, all were alive then.

With `CCCCCCCCCCCCCCCCS(=O)(=O)c1ccc(S(=O)(=O)CS(C)(=O)=O)cc1[N+](=O)[O-]`, where the note is “dose: 400.0 mg/kg/injection, schedule: Q01DX001 (ip), vehicle: other”, the survivor count was 6 of 6.
In the case of `C=C1C(=O)OC2CCC(O)C12` (centres undefined), under setting [1], the survivor count is reported as 1 of 7.
On to `O=C(CC(CC(=O)c1ccccc1)c1ccncc1)c1ccccc1`, for which the survivor count (dose: 100.0 mg/kg/injection, schedule: Q01DX001 (ip), vehicle: carboxymethylcellulose (CMC)) is given as 4 of 4.
Take `CCCCCCCCCC(N)=O`: under setting [2], the survivor count is 2 of 3.
Regarding `CC(=O)NC(c1ccccc1)C(C)C` (centres undefined), for the setting “dose: 400.0 mg/kg/injection, schedule: Q01DX001 (ip), vehicle: saline with Tween-80”, the survivor count is 0 of 3.
Consider `O=C(Nc1ccc(C2=NCCN2)cc1)c1cccc2c(C(=O)Nc3ccc(C4=NCCN4)cc3)cccc12`, for which the T/C runs as follows: (dose: 15.0 mg/kg/injection, schedule: Q01DX Z (ip), vehicle: carboxymethylcellulose (CMC)) 130 % of control; (dose: 33.0 mg/kg/injection, schedule: Q01DX Z (ip), vehicle: carboxymethylcellulose (CMC)) 127 % of control.
Consider `Nc1nc2nc(N=Nc3ccc(C(=O)O)c(O)c3)[nH]c2c(=O)[nH]1`, for which, under setting [3], the survivor count is listed as 2 of 6.
Consider `ClCCC(c1ccccc1)N1CCCCC1` (centres undefined), for which the survivor count under setting [4] is listed as 0 of 4.
On to `BrCc1cc(CBr)c(CBr)cc1CBr`, for which the survivor count is given as 6 of 6 (dose: 12.5 mg/kg/injection, schedule: Q04DX003 (ip), vehicle: saline); 3 of 6 (dose: 25.0 mg/kg/injection, schedule: Q01DX009 (ip), vehicle: acetone); 0 of 6 (dose: 50.0 mg/kg/injection, schedule: Q01DX009 (ip), vehicle: acetone); 0 of 6 (dose: 50.0 mg/kg/injection, schedule: Q04DX003 (ip), vehicle: saline); 1 of 6 (dose: 75.0 mg/kg/injection, schedule: Q04DX003 (ip), vehicle: saline); 0 of 6 (dose: 100.0 mg/kg/injection, schedule: Q01DX001 (ip), vehicle: acetone). In addition, the survivor count (dose: 115.0 mg/kg/injection, schedule: Q04DX003 (ip), vehicle: saline) is recorded as 1 of 6; the survivor count (dose: 170.0 mg/kg/injection, schedule: Q04DX003 (ip), vehicle: saline) is recorded as 0 of 6; the survivor count (dose: 200.0 mg/kg/injection, schedule: Q01DX001 (ip), vehicle: acetone) is listed as 1 of 6; the survivor count (dose: 400.0 mg/kg/injection, schedule: Q01DX001 (ip), vehicle: acetone) was 0 of 6.
Turning to `NC(=S)N/N=C/c1ccc([N+](=O)[O-])s1`, the survivor count (dose: 400.0 mg/kg/injection, schedule: Q04DX003 (ip), vehicle: water) is 6 of 6.
With `NNCC(F)(F)F`, the survivor count is 1 of 6 under setting [1] and 0 of 6 under setting [4].
For the compound `O=c1cc[nH]c(=O)o1`, the T/C was 129 % of control [9 of 10 alive] (dose: 19.0 mg/kg/injection, schedule: Q01DX009 (ip), vehicle: water); 127 % of control (dose: 28.0 mg/kg/injection, schedule: Q01DX009 (ip), vehicle: water); 133 % of control (dose: 42.0 mg/kg/injection, schedule: Q01DX009 (ip), vehicle: water).
With `CN(C)c1ccc(/C=C\c2cc(/C=C/c3ccc(N(C)C)cc3)c([N+](=O)[O-])cc2[N+](=O)[O-])cc1`, the survivor count (dose: 150.0 mg/kg/injection, schedule: Q01DX001 (ip), vehicle: saline) is given as 6 of 6.
For the compound `COc1ccc(P(=NS(=O)(=O)c2ccc(C)cc2)(c2ccc(OC)cc2)c2ccc(OC)cc2)cc1`, the survivor count under setting [3] is on record as 6 of 6.
Consider `C=C1C(=O)OCC2(C)CCCCC12` (centres undefined), for which the survivor count is on record as 0 of 6 (dose: 40.0 mg/kg/injection, schedule: Q04DX003 (ip), vehicle: saline); 0 of 6 (dose: 100.0 mg/kg/injection, schedule: Q04DX003 (ip), vehicle: saline with Tween-80); 0 of 6 (dose: 200.0 mg/kg/injection, schedule: Q04DX003 (ip), vehicle: saline with Tween-80); 0 of 6 (dose: 400.0 mg/kg/injection, schedule: Q04DX003 (ip), vehicle: saline with Tween-80).
With `Cc1ccc(C)c(NC(=O)Oc2ccc(Cl)cc2Cl)c1`, the survivor count reads like this: (dose: 100.0 mg/kg/injection, schedule: Q01DX009 (ip), vehicle: Klucel (hydroxypropylcellulose) (HPC)) 6 of 6; under setting [2], 5 of 6; (dose: 400.0 mg/kg/injection, schedule: Q01DX009 (ip), vehicle: Klucel (hydroxypropylcellulose) (HPC)) 4 of 6.
